The test deals with T1, CAS3 (Sordaria macrospora, UniProt F7VU04).
T1 construct: gene SMAC_03179; primers imply N-terminus (M)MPVTNEE and C-terminus KTVRVV-LE-His6
In words: stopped-flow CO2 hydration inhibition assay. The test is classed as biochemical.

Sequences of proteins named here, by UniProt entry; tags and fusion partners are left off.
UniProt F7VU04, entry or part of it: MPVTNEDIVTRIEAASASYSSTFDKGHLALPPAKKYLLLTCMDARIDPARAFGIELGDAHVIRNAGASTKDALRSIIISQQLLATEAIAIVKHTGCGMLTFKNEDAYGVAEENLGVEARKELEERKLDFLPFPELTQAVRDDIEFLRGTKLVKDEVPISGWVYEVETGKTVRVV

As usually defined, the Ki is a dissociation constant, usually derived from enzyme kinetics or from competition with a known ligand.

The compound `CCN[C@H]1C[C@H](C)S(=O)(=O)c2sc(S(N)(=O)=O)cc21` [DZA, dorzolamide] had a Ki of 274 ± 14 nM.

For the origin of these results see publication PMC7179226, “Sulfonamide Inhibition Studies of the β-Class Carbonic Anhydrase CAS3 from the Filamentous Ascomycete Sordaria macrospora” (Molecules, 2020).
